Like-named read-outs stand apart in the source and are kept apart here. Results are given in words; binding and its absence hold for the method and conditions named. Binding seen in cells or lysates may run through a third protein. These calls come from enrichment with a bait or labelling near it, and not all partners need be listed.

By UniProt entry, the sequences of proteins in these tests, tags left out.
UniProt A0A125YT62: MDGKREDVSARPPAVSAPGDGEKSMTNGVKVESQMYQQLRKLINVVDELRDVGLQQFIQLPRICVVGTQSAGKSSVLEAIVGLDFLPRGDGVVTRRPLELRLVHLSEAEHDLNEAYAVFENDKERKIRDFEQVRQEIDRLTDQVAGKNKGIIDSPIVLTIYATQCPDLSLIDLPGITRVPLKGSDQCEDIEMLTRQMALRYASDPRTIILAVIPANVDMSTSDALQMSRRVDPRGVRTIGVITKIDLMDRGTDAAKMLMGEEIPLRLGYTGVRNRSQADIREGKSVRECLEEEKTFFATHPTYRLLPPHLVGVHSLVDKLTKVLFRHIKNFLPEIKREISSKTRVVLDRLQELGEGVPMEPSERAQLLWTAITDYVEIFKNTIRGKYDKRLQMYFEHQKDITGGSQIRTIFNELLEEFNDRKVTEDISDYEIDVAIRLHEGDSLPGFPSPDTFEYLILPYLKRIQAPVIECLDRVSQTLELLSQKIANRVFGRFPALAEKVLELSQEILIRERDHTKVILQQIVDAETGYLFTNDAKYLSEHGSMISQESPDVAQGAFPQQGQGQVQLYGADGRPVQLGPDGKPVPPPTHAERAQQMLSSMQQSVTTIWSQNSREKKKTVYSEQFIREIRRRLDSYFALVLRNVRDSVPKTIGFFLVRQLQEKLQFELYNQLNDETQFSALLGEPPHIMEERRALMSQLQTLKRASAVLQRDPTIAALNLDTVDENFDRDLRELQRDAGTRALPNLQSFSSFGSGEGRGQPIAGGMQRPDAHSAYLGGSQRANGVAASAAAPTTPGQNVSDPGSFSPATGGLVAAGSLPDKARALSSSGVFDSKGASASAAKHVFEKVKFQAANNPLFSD

Holding throughout (assay): affinity purification with mass spectrometry; the same α-GFP (TgTEP-YFP) and α-HA (AP4ε-3xHA) immunoprecipitates from parasite lysate, on-bead trypsin digest, LC-MS/MS, volcano plots against control; biological triplicates
Assay [1] deals with T. gondii AP4 epsilon subunit (TgAP4ε) tagged with 3xHA (T. gondii) (UniProt S8F423).
For assay [2] the target is unchanged. The source holds these as a separate data set.
In assay [3] the target is T. gondii tepsin (TgTEP, TGGT1_301410) endogenously tagged with YFP (T. gondii).

In the case of “dynamin-related protein B (DrpB) (from UniProt A0A125YT62 1-860)”, the binding result in assay [1] was “binds weakly”.

B1: CRT, a PLVAC transporter (protein, UniProt A0A059XKS9 1-890)
chain: MPPAHHGSGGRRRPGRGNKGKRDTEAGMTASPDPGYMRPETHAAPSQQTDVRSPASAREHRNADVGVAAPDALTPNAGEQKEVEGVAKVNVAVSSDQPPDWAPSQSDLPPSLSPTTASRPATSSRSPRARSRHSPVASSSAFSSPAPSASALTSASGVPEAPLAAPELKHTLAADEGNPEPRLEGPVERLHARQENPLTDSSDGSYILLEEGESQRACLDRKNRHLRQTTPPGVWTTADLASQNSHSASFASGFRRALLPSGGSGDHDEQASDCRASLRGMQRPCFGSPSTDTRMGAAEGLPLASRRRRQHWRRELRAFGAVALACLRASWHGMKRARLRATRWIDRNAATVRVACYTFLLLVTSTGNTICFKKMIDKMPNYSPCLTQVTTVVFVPVFFALSLYTDYAGGLPQEMADFPKRNFAVMGFLDSFSGVMAIIGAVHTTGTTQVVLQQSCIVFSLLASIVMLRKRFHAAHYLGALVIILGVLVVKLPDLLHPSSDGGGDVFVFNLLYLLSNLPTAVSCVYKEVAFRGVEMGTNYLQAWVALFQFLIGFLVLPLNALPVLGPQRVPLAELPASLWNGTRCLFGFNTIVTNCGGAGNMESPCDNCEGAWKYVGMYLSFNLLYNMFIIFVVKSGGAALTFLVSTLRLPVTALAFCSRAIMGDRAVPPKATDFYGLLVLILGLVIYRAGGIMKRRAQRRAVAAARGHTSSPMMLTPREEEQIGTIFVEEVFAAGELEDGGVTEEDETDDDTSEVEVHPVFSSVVASEPPHVYVHTKRHSHSDGGYHKLPACGSSPAAFTPFTQRMPGTGSESCSRRRNRDGDDERSPRSHACSFDEETGFAGGTGTGRHFSSPGTALSPNRVGGYEPPSMHAVQPAVIGKSRANNGCI
Turning to B1, the binding entry in assay [2] and in assay [3] was “binds” in each case.

Source of the values: paper PMC12517565.
